# Test results published in PubChem BioAssay AID540276 (National Center for Advancing Translational Sciences (NCATS), 2011).
# About 5,400 (1.8%) of roughly 300,000 compounds were called active. The shares of active, inactive and inconclusive entries below differ from those in the screen. The call rests on the fitted dose curve; tested in HEK293 cells. Potencies of inconclusive entries are doubtful fits and often do not repeat.
# Assay: qHTS for inhibitors of binding or entry into cells for Marburg Virus
# Conditions: Marburg virus pseudotyped entry inhibition, cell reporter; series mostly up to 37.8 µM
# Potency means the concentration at half of the fitted maximal effect.
row,SMILES,Potency
1,Cc1cccc(Cc2nc3ccccc3[nH]2)c1,inactive
2,CCOc1ccccc1NC(=O)c1cc2cc(C)ccc2n1C,inactive
3,CN(C)CCCN(C(=O)c1ccc(S(=O)(=O)N2CCCC2)cc1)c1nc2c(F)cc(F)cc2s1,"inconclusive: 3.55 µM [inhibitor, partial curve, poor fit]"
4,CCc1ccc(CN(C)C(=O)c2cc(S(=O)(=O)N3CCN(CC)CC3)ccc2Cl)cc1,"inconclusive: 17.8 µM [inhibitor, single point]"
5,Cc1ccc(-c2csc(NC(=O)c3c(C)noc3C)n2)s1,"inconclusive: 10 µM [inhibitor, single point]"
6,Cc1ccc(C(=O)NCC(=O)OCC(=O)NCC(F)(F)F)cc1,inactive
7,COc1ccccc1-c1cc2nc(C)c(CCC(=O)NCc3ccc(F)cc3)c(C)n2n1,inactive
8,O=C(c1ccc(Br)s1)N1CCN(S(=O)(=O)c2ccccc2)CC1,"inconclusive: 0.794 µM [inhibitor, full curve, poor fit]"
9,O=C(NNC(=O)c1nn(-c2ccc(F)cc2)ccc1=O)Nc1cccc(Cl)c1,"inconclusive: 3.16 µM [inhibitor, single point]"
10,COc1cccc2sc(Nc3nc(-c4cc5ccccc5oc4=O)cs3)nc12,inactive
11,COc1ccc2[nH]cc(CCNC(=O)Nc3cccc(F)c3)c2c1,"inconclusive: 11.2 µM [inhibitor, partial curve, poor fit]"
12,COCCN(C(=O)c1csnn1)C(C(=O)NC1CCCCC1)c1ccc(Cl)cc1 (configuration not stated),"inconclusive: 5.62 µM [inhibitor, single point]"
13,CCOc1ccc(CN2C(=O)c3ccccc3Sc3ccc(C(=O)NCCc4ccccc4)cc32)cc1,"inconclusive: 35.5 µM [inhibitor, single point]"
14,CC(C)=CCC(C)(C)C1OCCN1C(=O)Nc1ccccc1 (configuration not stated),"inconclusive: 0.0052 µM [inhibitor, full curve, poor fit]"
15,Cc1cccc(C)c1NC(=O)Cn1cnc2c(=O)n(C)c(=O)n(C)c21,inactive
16,Cc1cc(C(=O)N[C@H](c2ccccc2)[C@@]2(C)C[C@@H]2[C@@H](C)C(=O)Nc2ccc3ccccc3c2)no1,"inconclusive: 29.1 µM [inhibitor, single point]"
17,Cc1ccc(-n2c3c(c(=O)[nH]c2=O)C(NS(=O)(=O)c2ccc(C)cc2)(C(F)(F)F)C(=O)N3)cc1 (configuration not stated),"inconclusive: 2.82 µM [activator, partial curve, poor fit]"
18,COc1cc(CCC(=O)N2CCN(S(=O)(=O)c3ccc(C)c(C)c3)CC2)cc(OC)c1OC,"inconclusive: 23.1 µM [inhibitor, single point]"
19,CC(C)c1cccc(C(C)C)c1NC(=O)Cn1c(=O)cnc2ccccc21,inactive
20,CSc1ccc(CN(C)C(=O)c2cc(S(=O)(=O)NCc3ccccc3)ccc2C)cc1,"inconclusive: 0.398 µM [inhibitor, single point]"
21,Cc1ccc(C(=O)Nc2ccc3c(c2)CCC3)o1,"inconclusive: 29.1 µM [inhibitor, partial curve, poor fit]"

row,SMILES,Potency
1,CC(Nc1ccc(F)cc1F)C(=O)NC(=O)NC1CCCCC1 (configuration not stated),"inconclusive: 17.8 µM [inhibitor, partial curve, poor fit]"
2,O=C(Cc1ccc(S(=O)(=O)N2CCOCC2)s1)NCCOc1ccccc1F,inactive
3,Cc1cccc(C)c1OCc1cc(C(=O)NCC2COCCO2)no1 (configuration not stated),inactive
4,COc1ccc(C(=O)O/N=C(\C)c2ccccc2)cc1,inactive
5,Cc1oc(-c2ccc(Cl)cc2)nc1CS(=O)CC(=O)NCCCN1CC(C)CC(C)C1 (configuration not stated),"inconclusive: 3.16 µM [inhibitor, partial curve, poor fit]"
6,c1ccc(COc2ccc(OCCCN3CCCC3)cc2)cc1,active: 13 µM
7,CSc1nc(Nc2ccc(C)cc2)c(C#N)c(-c2ccccc2)n1,"inconclusive: 0.562 µM [inhibitor, full curve, poor fit]"
8,N[C@@H]1C=CC=C(C(=O)O)C1,inactive
9,CC(C)CCn1c(=O)c(C(=O)NCc2ccc3c(c2)OCO3)c(O)c2ccccc21,"inconclusive: 12.6 µM [inhibitor, partial curve, poor fit]"
10,Cc1ccc(-c2nnc(Nc3ccc4c(c3)OCO4)c3ccccc23)cc1S(=O)(=O)NC(C)C,"inconclusive: 1 µM [inhibitor, single point]"
11,COc1ccc(CC(=O)Nc2ccc3c(C)cc(=O)oc3c2)cc1OC,"inconclusive: 0.282 µM [inhibitor, partial curve, poor fit]"
12,O=C(NCCn1cc(SCc2ccccc2F)c2ccccc21)c1cccs1,"inconclusive: 5.62 µM [inhibitor, single point]"
13,COc1ccc(C(CNC(=O)c2cc3ccccc3cc2O)N2CCOCC2)cc1 (configuration not stated),"inconclusive: 6.31 µM [inhibitor, partial curve, poor fit]"
14,CCc1ccc(CNC(=O)CSc2c3c(nc4ccc(Cl)cc24)CCCC3)cc1,"inconclusive: 0.631 µM [inhibitor, full curve, poor fit]"
15,CN=C1CN(O)C(c2ccccc2)c2cc(Cl)ccc2N1 (configuration not stated),"inconclusive: 35.5 µM [inhibitor, single point]"
16,CC(C(=O)Nc1ccccc1C(F)(F)F)n1nnc2sc3c(c2c1=O)CCCC3 (configuration not stated),"inconclusive: 3.55 µM [inhibitor, single point]"
17,Cc1ccc(NC(=O)[C@H]2O[C@@H]3OC(C)(C)O[C@@H]3[C@H]3OC(C)(C)O[C@H]32)cc1F,inactive
18,O=C(Cn1cc(C(F)(F)F)cc(Cl)c1=O)Nc1cc(S(=O)(=O)N2CCOCC2)ccc1Cl,"inconclusive: 4.47 µM [activator, full curve]"
19,CCCCc1n(CC(=O)c2ccc(Cl)cc2)c2ccccc2[n+]1C,"inconclusive: 10 µM [inhibitor, single point]"
20,CCOC(=O)C1CCCN(C(=O)c2cc(COc3ccc(C)nc3)on2)C1 (configuration not stated),inactive
21,COc1ccc(NC(=O)c2c3c(nc4ccccc24)CCN(Cc2ccccc2)C3)c(OC)c1,"inconclusive: 23.1 µM [inhibitor, partial curve, poor fit]"

# Two records drawn at random from the list so far, as already listed:
row,SMILES,Potency
7,COc1ccccc1-c1cc2nc(C)c(CCC(=O)NCc3ccc(F)cc3)c(C)n2n1,inactive
1,CC(Nc1ccc(F)cc1F)C(=O)NC(=O)NC1CCCCC1 (configuration not stated),"inconclusive: 17.8 µM [inhibitor, partial curve, poor fit]"
